Experimental findings from paper PMC4482739, “MamA as a Model Protein for Structure-Based Insight into the Evolutionary Origins of Magnetotactic Bacteria” (PLoS ONE, 2015) are described below.

The assay deals with MamAΔ41 from Magnetospirillum magneticum AMB-1 (Magnetospirillum magneticum AMB-1) (UniProt Q2W8Q0). The assay is described as follows: SEC; Superdex 200; sizes from elution volumes against protein markers; buffer for these proteins not stated; both purified. In general terms: In gel filtration, larger molecules generally elute earlier.

These are yes or no findings as the source states them, for the method shown.

B1: MamAΔ41 from Magnetospirillum magneticum AMB-1 (domain or fragment, UniProt Q2W8Q0 42-217)
chain: DDIRQVYYRDKGISHAKAGRYSQAVMLLEQVYDADAFDVDVALHLGIAYVKTGAVDRGTELLERSLADAPDNVKVATVLGLTYVQVQKYDLAVPLLIKVAEANPINFNVRFRLGVALDNLGRFDEAIDSFKIALGLRPNEGKVHRAIAFSYEQMGRHEEALPHFKKANELDEGASV
Consider B1, for which the binding entry is given as “no binding”.
